Data as given in patent US20250206725A1, “MODULATORS OF THR-BETA AND METHODS OF USE THEREOF” (Aligos Therapeutics, Inc., priority 2023, published 2025).

Tests used:
[1] = 10 μM, 37° C., 120 min
[2] = similar to one another

SMILES	parent remaining in rat hepatocytes [1]	metabolic stability in mouse liver microsomes [2]
[2H]C([2H])([2H])C([2H])(c1cc(Oc2c(Cl)cc(-n3nc(N)c(=O)[nH]c3=O)cc2Cl)n[nH]c1=O)C([2H])([2H])[2H] [Compound 1, 6-amino-2-(3,5-dichloro-4-((6-oxo-5-(propan-2-yl-d7)-1,6-dihydropyridazin-3-yl)oxy)phenyl)-1,2,4-triazine-3,5-(2H, 4H)-dione]	95%	high metabolic stability
CC(C)c1cc(Oc2c(Cl)cc(-n3nc(N)c(=O)[nH]c3=O)cc2Cl)n[nH]c1=O [Compound A]	90%	high metabolic stability
